Source: the supplement of paper PMC10849652
The other results are listed elsewhere or left out.

Amino acid sequences for entries named in this document (tags omitted). A change or cut given only in a name is not applied to a line headed by its entry.
UniProt O75223: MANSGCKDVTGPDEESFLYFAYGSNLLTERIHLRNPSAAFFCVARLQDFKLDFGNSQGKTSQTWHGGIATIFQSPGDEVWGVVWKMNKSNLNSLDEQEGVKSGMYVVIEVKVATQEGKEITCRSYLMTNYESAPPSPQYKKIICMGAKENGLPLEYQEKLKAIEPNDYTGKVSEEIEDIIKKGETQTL
UniProt P04899, whole entry, looked up: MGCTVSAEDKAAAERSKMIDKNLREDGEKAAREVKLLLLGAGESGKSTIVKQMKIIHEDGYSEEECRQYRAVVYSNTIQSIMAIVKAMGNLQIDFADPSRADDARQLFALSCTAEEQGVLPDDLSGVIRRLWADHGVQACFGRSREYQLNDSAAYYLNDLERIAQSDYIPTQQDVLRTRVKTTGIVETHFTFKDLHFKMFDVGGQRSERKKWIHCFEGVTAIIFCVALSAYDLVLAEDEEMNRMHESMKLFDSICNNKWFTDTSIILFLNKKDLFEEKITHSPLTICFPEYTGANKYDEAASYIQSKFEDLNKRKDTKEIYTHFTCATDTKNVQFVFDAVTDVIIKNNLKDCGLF
UniProt P13224: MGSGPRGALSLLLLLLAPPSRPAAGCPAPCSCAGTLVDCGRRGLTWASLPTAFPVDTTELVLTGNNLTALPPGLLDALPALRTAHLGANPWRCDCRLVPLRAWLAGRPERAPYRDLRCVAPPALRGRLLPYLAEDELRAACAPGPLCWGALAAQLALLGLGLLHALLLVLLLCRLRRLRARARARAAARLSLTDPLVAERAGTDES
UniProt O60234, whole entry, looked up: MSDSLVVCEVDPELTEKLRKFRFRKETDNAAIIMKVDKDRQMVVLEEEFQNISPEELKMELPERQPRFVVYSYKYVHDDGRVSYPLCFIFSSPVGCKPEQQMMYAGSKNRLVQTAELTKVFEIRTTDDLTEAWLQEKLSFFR
UniProt Q7Z5G4, whole entry, looked up: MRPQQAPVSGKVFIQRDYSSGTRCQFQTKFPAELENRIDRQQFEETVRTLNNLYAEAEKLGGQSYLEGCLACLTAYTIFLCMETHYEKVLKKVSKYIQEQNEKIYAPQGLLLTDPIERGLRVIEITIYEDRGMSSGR
UniProt Q86WP2: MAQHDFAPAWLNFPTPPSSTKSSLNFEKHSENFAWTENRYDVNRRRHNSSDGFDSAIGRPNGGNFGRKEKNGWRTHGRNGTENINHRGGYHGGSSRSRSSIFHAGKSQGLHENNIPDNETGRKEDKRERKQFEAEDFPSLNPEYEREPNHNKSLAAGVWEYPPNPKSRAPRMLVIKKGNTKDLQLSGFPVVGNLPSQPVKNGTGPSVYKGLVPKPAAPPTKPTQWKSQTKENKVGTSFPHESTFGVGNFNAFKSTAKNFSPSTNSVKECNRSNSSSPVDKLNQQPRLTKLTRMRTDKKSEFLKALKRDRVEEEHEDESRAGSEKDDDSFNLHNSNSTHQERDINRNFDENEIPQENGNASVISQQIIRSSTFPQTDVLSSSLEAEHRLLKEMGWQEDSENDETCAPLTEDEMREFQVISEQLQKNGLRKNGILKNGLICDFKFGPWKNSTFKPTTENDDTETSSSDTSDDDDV
UniProt P60983, whole entry, looked up: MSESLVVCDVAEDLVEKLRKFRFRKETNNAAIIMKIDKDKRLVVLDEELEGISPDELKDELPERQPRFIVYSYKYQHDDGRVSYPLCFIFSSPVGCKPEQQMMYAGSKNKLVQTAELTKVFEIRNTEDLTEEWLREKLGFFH
UniProt Q9UJ14: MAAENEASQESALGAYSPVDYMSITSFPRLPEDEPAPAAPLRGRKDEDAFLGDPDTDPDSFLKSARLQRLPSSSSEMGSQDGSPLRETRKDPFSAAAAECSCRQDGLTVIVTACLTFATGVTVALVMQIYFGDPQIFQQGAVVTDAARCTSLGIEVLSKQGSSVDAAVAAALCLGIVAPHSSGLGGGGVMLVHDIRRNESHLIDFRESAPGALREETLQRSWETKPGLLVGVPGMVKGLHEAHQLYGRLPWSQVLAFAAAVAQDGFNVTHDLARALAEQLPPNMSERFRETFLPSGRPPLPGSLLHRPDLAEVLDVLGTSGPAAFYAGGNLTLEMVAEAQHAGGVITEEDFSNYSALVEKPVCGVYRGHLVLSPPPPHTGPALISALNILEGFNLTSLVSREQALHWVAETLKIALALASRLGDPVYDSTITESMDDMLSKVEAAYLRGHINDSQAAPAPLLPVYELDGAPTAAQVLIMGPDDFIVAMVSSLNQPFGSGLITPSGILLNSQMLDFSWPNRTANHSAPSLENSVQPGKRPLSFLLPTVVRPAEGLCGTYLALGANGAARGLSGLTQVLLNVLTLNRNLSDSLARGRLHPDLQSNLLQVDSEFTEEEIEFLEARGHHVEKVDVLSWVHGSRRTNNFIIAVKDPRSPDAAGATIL
UniProt Q9NPB8: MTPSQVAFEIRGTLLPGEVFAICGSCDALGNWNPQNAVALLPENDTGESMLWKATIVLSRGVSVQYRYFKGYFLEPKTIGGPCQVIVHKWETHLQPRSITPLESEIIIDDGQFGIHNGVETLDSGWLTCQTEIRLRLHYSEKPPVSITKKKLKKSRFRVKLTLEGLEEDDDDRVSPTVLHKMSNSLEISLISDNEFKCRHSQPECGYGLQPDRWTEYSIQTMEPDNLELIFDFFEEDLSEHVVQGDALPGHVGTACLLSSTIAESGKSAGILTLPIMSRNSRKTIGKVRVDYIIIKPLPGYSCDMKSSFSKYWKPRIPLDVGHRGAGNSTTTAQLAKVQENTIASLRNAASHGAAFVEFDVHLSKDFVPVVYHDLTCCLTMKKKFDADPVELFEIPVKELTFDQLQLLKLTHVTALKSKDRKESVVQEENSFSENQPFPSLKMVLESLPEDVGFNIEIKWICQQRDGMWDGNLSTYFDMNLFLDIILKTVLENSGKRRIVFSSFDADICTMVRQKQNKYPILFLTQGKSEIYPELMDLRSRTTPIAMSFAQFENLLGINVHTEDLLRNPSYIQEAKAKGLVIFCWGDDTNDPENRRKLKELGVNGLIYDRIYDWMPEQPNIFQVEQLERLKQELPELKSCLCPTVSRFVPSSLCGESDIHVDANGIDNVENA
UniProt Q08379: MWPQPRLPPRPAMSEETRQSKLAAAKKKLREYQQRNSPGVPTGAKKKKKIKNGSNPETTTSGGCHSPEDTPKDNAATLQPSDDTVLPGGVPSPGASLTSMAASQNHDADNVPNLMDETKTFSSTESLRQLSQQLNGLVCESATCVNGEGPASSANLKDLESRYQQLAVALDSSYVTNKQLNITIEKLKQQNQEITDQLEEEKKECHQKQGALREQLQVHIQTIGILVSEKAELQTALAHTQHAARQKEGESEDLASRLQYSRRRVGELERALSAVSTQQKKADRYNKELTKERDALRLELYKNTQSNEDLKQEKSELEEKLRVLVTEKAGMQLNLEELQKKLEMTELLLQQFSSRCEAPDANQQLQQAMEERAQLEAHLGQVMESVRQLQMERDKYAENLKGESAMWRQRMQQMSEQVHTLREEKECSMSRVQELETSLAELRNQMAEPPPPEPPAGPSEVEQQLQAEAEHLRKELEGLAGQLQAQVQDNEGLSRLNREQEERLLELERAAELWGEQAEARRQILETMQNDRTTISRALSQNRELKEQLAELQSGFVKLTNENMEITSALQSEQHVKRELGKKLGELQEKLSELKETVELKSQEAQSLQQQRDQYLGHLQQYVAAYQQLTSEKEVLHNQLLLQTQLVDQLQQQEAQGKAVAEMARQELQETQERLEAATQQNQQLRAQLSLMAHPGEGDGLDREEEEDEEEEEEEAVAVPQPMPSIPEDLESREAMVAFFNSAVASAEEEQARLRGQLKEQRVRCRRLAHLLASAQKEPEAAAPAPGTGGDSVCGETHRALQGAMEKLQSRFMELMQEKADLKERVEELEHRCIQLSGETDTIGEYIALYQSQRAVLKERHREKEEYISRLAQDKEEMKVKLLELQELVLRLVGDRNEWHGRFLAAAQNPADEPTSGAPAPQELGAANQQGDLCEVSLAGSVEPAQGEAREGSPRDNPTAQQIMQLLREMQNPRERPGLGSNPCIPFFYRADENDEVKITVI
UniProt Q8IVV7: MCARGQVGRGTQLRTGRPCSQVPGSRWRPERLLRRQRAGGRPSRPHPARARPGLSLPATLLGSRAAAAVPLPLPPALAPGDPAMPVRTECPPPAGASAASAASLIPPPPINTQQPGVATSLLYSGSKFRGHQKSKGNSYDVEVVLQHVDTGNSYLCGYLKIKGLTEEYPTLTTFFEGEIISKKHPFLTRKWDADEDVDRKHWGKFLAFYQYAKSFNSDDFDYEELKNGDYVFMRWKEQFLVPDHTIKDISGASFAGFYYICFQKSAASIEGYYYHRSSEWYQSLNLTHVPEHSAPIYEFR
UniProt Q14344, whole entry, looked up: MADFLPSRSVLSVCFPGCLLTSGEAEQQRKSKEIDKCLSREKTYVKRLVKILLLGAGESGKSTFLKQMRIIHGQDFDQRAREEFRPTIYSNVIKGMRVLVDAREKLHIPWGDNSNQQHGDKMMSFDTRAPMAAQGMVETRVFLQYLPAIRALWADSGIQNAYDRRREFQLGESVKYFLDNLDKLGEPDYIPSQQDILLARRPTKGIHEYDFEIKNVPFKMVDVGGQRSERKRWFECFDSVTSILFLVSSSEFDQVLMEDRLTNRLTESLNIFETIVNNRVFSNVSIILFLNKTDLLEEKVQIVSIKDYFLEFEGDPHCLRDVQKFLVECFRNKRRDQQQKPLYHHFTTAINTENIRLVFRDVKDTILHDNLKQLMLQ
UniProt Q92896: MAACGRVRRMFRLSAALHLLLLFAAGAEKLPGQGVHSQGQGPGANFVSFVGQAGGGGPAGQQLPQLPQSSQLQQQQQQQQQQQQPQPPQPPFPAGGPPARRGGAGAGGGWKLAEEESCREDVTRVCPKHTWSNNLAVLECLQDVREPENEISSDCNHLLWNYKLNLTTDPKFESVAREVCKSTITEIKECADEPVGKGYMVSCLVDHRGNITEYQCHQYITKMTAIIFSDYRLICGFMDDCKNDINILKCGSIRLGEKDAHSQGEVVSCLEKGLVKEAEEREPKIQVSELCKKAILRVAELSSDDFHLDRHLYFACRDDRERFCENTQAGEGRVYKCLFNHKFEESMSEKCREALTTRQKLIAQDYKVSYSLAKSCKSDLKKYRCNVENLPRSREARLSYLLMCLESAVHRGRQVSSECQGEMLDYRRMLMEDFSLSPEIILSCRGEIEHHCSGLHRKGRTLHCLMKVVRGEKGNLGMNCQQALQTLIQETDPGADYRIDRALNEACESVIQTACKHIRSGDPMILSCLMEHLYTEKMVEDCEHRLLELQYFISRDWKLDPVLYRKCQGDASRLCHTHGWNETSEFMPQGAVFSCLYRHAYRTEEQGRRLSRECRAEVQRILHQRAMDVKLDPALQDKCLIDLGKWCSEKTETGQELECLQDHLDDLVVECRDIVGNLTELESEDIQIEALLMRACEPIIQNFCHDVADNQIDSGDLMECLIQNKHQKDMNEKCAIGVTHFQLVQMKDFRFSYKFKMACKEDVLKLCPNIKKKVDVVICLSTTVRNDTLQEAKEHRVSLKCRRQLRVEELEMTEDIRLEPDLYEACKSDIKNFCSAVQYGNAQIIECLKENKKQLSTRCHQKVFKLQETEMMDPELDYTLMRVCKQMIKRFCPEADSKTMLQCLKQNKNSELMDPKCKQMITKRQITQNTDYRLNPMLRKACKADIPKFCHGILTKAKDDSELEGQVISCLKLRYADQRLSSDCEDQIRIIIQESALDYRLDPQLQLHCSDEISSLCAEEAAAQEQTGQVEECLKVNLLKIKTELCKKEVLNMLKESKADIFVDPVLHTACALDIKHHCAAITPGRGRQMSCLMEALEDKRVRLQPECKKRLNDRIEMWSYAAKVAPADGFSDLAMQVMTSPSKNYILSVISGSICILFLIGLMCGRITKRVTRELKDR
UniProt P16520, whole entry, looked up: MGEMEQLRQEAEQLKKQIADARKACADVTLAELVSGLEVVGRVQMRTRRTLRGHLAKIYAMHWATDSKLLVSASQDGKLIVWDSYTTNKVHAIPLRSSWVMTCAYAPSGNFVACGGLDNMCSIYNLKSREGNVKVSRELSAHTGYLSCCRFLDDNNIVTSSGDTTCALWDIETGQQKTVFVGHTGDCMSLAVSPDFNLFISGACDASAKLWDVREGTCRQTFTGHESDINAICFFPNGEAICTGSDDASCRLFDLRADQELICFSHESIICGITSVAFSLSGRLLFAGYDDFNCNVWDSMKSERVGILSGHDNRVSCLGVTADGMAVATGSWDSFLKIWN
UniProt Q9Y5P6: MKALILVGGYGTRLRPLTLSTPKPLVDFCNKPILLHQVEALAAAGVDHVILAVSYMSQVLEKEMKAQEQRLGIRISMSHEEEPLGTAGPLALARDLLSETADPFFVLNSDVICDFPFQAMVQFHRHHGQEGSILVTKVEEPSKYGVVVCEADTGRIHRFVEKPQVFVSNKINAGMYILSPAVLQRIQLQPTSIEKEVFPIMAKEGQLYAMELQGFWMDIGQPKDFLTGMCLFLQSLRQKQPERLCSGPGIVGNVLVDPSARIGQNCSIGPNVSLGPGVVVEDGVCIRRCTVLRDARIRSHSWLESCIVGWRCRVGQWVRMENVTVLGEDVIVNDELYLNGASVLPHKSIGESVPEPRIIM

Tests used:
Test in all cases: log2 fold change, soluble protein after heating vs DMSO (PISA); higher = thermal stabilisation; K562 lysate, 10 uM; active = over 0.2 and 3.5 SD of the protein, either way, in both replicates (recomputed)
lapatinib = compound: CS(=O)(=O)CCNCc1ccc(-c2ccc3ncnc(Nc4ccc(OCc5cccc(F)c5)c(Cl)c4)c3c2)o1 [lapatinib]
Summary of the method: (§1)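 Values give the log-two fold change in thermal stability against solvent controls, from duplicates. Crude K562 extract at 1 mg/mL protein, made by dounce homogenisation in PBS pH 7.4 with 1 mM MgCl2, was treated with 10 μM compound for 30 min. After 3 min heating across 48°C-58°C, aliquots were pooled, adjusted to 0.5% NP-40 at 4°C and centrifuged at 21,000xg for 90 min. The supernatant was measured by TMTpro 16plex LC-MS/MS with channel sums equalised.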

pictilisib = compound: CS(=O)(=O)N1CCN(Cc2cc3nc(-c4cccc5[nH]ncc45)nc(N4CCOCC4)c3s2)CC1 [pictilisib]
Summary of the method: as §1

crizotinib = compound: C[C@@H](Oc1cc(-c2cnn(C3CCNCC3)c2)cnc1N)c1c(Cl)ccc(F)c1Cl [crizotinib]
Summary of the method: as §1

[1] = compound: C[C@H](C1=CC=C(C=C1)C(=O)NC2=C3C=CNC3=NC=C2)N
Summary of the method: as §1

duvelisib = compound: C[C@H](Nc1ncnc2nc[nH]c12)c1cc2cccc(Cl)c2c(=O)n1-c1ccccc1 [duvelisib]
Summary of the method: as §1

gandotinib = compound: Cc1cc(Nc2cc(CN3CCOCC3)c3nc(C)c(Cc4ccc(Cl)cc4F)n3n2)n[nH]1 [gandotinib]
Summary of the method: as §1

tozasertib = compound: Cc1cc(Nc2cc(N3CCN(C)CC3)nc(Sc3ccc(NC(=O)C4CC4)cc3)n2)n[nH]1 [tozasertib]
Summary of the method: as §1

doramapimod = compound: Cc1ccc(-n2nc(C(C)(C)C)cc2NC(=O)Nc2ccc(OCCN3CCOCC3)c3ccccc23)cc1 [doramapimod]
Summary of the method: as §1

bafetinib = compound: Cc1ccc(NC(=O)c2ccc(CN3CC[C@H](N(C)C)C3)c(C(F)(F)F)c2)cc1Nc1nccc(-c2cncnc2)n1 [bafetinib]
Summary of the method: as §1

[2] = compound: Cc1cccc(CC(=O)N2CCc3c2ccc(-c2cn(C)c4ncnc(N)c24)c3F)n1
Summary of the method: as §1

Measured: log2 fold change

GGCT (UniProt O75223)
inactive: lapatinib 0.014 | pictilisib 0.022 | crizotinib 0 | [1] -0.024 | duvelisib -0.01 | gandotinib 0.062 | tozasertib -0.001 | doramapimod 0.034 | bafetinib -0.016 | [2] -0.008

GPATCH1 (UniProt Q9BRR8)
inactive: lapatinib 0.02 | pictilisib 0.065 | crizotinib 0.037 | [1] 0.184 | duvelisib 0.062 | gandotinib -0.099 | tozasertib -0.02 | doramapimod 0.064 | bafetinib 0.062 | [2] -0.156

GNA11 (UniProt P29992)
inactive: lapatinib -0.005 | pictilisib -0.045 | crizotinib -0.004 | [1] -0.052 | duvelisib 0.023 | gandotinib -0.001 | tozasertib 0.068 | doramapimod 0.009 | bafetinib -0.013 | [2] 0.066

GOLPH3L (UniProt Q9H4A5)
inactive: lapatinib 0.019 | pictilisib -0.048 | crizotinib -0.106 | [1] -0.028 | duvelisib -0.027 | gandotinib -0.05 | tozasertib -0.071 | doramapimod -0.009 | bafetinib -0.146 | [2] 0.029

GNAI2 (UniProt P04899)
inactive: lapatinib -0.014 | pictilisib -0.016 | crizotinib -0.042 | [1] 0.041 | duvelisib 0.024 | gandotinib -0.057 | tozasertib 0.03 | doramapimod 0.031 | bafetinib 0.005 | [2] -0.065

GLB1L2 (UniProt Q8IW92)
inactive: lapatinib -0.016 | pictilisib -0.039 | crizotinib -0.006 | [1] -0.104 | duvelisib 0.033 | gandotinib 0.11 | tozasertib 0.116 | doramapimod 0.009 | bafetinib 0.032 | [2] 0.061

GP1BB isoform 2 (UniProt P13224)
inactive: lapatinib 0.008 | pictilisib -0.048 | crizotinib 0.007 | [1] -0.01 | duvelisib 0.051 | gandotinib -0.046 | tozasertib 0.109 | doramapimod 0.029 | bafetinib -0.013 | [2] 0.006

GMFG (UniProt O60234)
inactive: lapatinib 0.051 | pictilisib 0.048 | crizotinib 0.03 | [1] 0.065 | duvelisib 0.011 | gandotinib -0.023 | tozasertib -0.048 | doramapimod -0.003 | bafetinib -0.022 | [2] -0.084

GPATCH8 (UniProt Q9UKJ3)
inactive: lapatinib 0.004 | pictilisib 0.052 | crizotinib 0.087 | [1] -0.033 | duvelisib -0.012 | gandotinib 0.022 | tozasertib 0.082 | doramapimod 0.012 | bafetinib -0.025 | [2] 0.039

GOLGA7 (UniProt Q7Z5G4)
inactive: lapatinib 0.006 | pictilisib -0.062 | crizotinib 0.012 | [1] -0.04 | duvelisib 0.009 | gandotinib -0.017 | tozasertib -0.003 | doramapimod 0.036 | bafetinib -0.062 | [2] 0.004

GPHN isoform 2 (UniProt Q9NQX3)
inactive: lapatinib -0.001 | pictilisib -0.007 | crizotinib 0.012 | [1] -0.026 | duvelisib 0.027 | gandotinib 0.033 | tozasertib 0.02 | doramapimod 0.002 | bafetinib 0.001 | [2] 0.008

GPBP1 isoform 2 (UniProt Q86WP2)
inactive: lapatinib -0.066 | pictilisib 0.034 | crizotinib 0.042 | [1] -0.024 | duvelisib -0.024 | gandotinib 0.081 | tozasertib -0.012 | doramapimod 0.076 | bafetinib 0.011 | [2] 0.041

GMFB (UniProt P60983)
inactive: lapatinib -0.023 | pictilisib -0.019 | crizotinib 0.041 | [1] -0.002 | duvelisib 0.018 | gandotinib -0.003 | tozasertib 0.032 | doramapimod -0.007 | bafetinib 0.011 | [2] -0.04

GGT7 (UniProt Q9UJ14)
inactive: lapatinib -0.024 | pictilisib -0.007 | crizotinib 0.01 | [1] 0.068 | duvelisib 0.011 | gandotinib 0.033 | tozasertib -0.03 | doramapimod -0.054 | bafetinib -0.09 | [2] 0.042

GORASP2 isoform 3 (UniProt Q9H8Y8)
inactive: lapatinib -0.001 | pictilisib 0.014 | crizotinib -0.022 | [1] -0.15 | duvelisib 0.005 | gandotinib 0.048 | tozasertib 0.024 | doramapimod 0.036 | bafetinib -0.021 | [2] 0.131

GPCPD1 (UniProt Q9NPB8)
inactive: lapatinib 0.031 | pictilisib -0.063 | crizotinib -0.076 | [1] -0.051 | duvelisib -0.052 | gandotinib 0.04 | tozasertib -0.027 | doramapimod 0.007 | bafetinib -0.119 | [2] 0.067

GOLGA2 (UniProt Q08379)
inactive: lapatinib -0.018 | pictilisib -0.05 | crizotinib -0.061 | [1] -0.008 | duvelisib -0.016 | gandotinib -0.058 | tozasertib -0.013 | doramapimod 0.014 | bafetinib -0.052 | [2] 0.064

GNL3L (UniProt Q9NVN8)
inactive: lapatinib 0.028 | pictilisib 0.019 | crizotinib -0.061 | [1] -0.012 | duvelisib 0.029 | gandotinib 0.089 | tozasertib -0.031 | doramapimod 0.014 | bafetinib -0.228 | [2] 0.081

GLMN (UniProt Q92990)
inactive: lapatinib 0.014 | pictilisib -0.002 | crizotinib -0.01 | [1] -0.018 | duvelisib 0.035 | gandotinib 0 | tozasertib -0.003 | doramapimod 0.004 | bafetinib -0.018 | [2] 0.066

GPI (UniProt P06744)
inactive: lapatinib -0.017 | pictilisib 0.022 | crizotinib 0.032 | [1] 0.003 | duvelisib 0.004 | gandotinib -0.013 | tozasertib -0.007 | doramapimod 0 | bafetinib 0.038 | [2] -0.004

GID4 (UniProt Q8IVV7)
inactive: lapatinib -0.045 | pictilisib -0.035 | crizotinib -0.043 | [1] -0.022 | duvelisib 0.079 | gandotinib 0.012 | tozasertib -0.014 | doramapimod -0.011 | bafetinib 0.03 | [2] -0.031

Taken from the results shown (2 entries):
GNL3L (UniProt Q9NVN8)
inactive: lapatinib 0.028 | pictilisib 0.019 | crizotinib -0.061 | [1] -0.012 | duvelisib 0.029 | gandotinib 0.089 | tozasertib -0.031 | doramapimod 0.014 | bafetinib -0.228 | [2] 0.081

GLMN (UniProt Q92990)
inactive: lapatinib 0.014 | pictilisib -0.002 | crizotinib -0.01 | [1] -0.018 | duvelisib 0.035 | gandotinib 0 | tozasertib -0.003 | doramapimod 0.004 | bafetinib -0.018 | [2] 0.066

Next part

GNA13 (UniProt Q14344)
inactive: lapatinib -0.045 | pictilisib 0.001 | crizotinib -0.013 | [1] -0.076 | duvelisib -0.006 | gandotinib 0.023 | tozasertib 0.034 | doramapimod 0.03 | bafetinib -0.051 | [2] 0.036

GMPR2 isoform 2 (UniProt Q9P2T1)
inactive: lapatinib -0.029 | pictilisib -0.016 | crizotinib 0.072 | [1] -0.03 | duvelisib 0.008 | gandotinib -0.003 | tozasertib -0.012 | doramapimod -0.009 | bafetinib 0.035 | [2] -0.026

GLG1 isoform 2 (UniProt Q92896)
inactive: lapatinib -0.021 | pictilisib -0.025 | crizotinib 0.05 | [1] -0.006 | duvelisib -0.011 | gandotinib 0.027 | tozasertib 0.016 | doramapimod 0.008 | bafetinib 0.034 | [2] -0.013

GLOD4 isoform 2 (UniProt Q9HC38)
inactive: lapatinib -0.005 | pictilisib -0.005 | crizotinib 0.016 | [1] 0.021 | duvelisib 0 | gandotinib -0.035 | tozasertib 0.002 | doramapimod -0.012 | bafetinib 0.035 | [2] -0.016

GNG5 (UniProt P63218)
inactive: lapatinib 0.019 | pictilisib 0.019 | crizotinib -0.007 | [1] 0.158 | duvelisib -0.003 | gandotinib -0.048 | tozasertib 0.006 | doramapimod 0.058 | bafetinib -0.002 | [2] -0.084

GPAA1 (UniProt O43292)
inactive: lapatinib -0.091 | pictilisib -0.05 | crizotinib -0.072 | [1] 0.041 | duvelisib -0.006 | gandotinib -0.051 | tozasertib -0.001 | doramapimod 0.012 | bafetinib -0.058 | [2] 0.137

GNB3 (UniProt P16520)
inactive: lapatinib -0.083 | pictilisib 0.014 | crizotinib -0.114 | [1] -0.112 | duvelisib -0.127 | gandotinib 0.099 | tozasertib 0.08 | doramapimod 0.071 | bafetinib -0.164 | [2] 0.095

GMEB1 (UniProt Q9Y692)
inactive: lapatinib -0.033 | pictilisib -0.044 | crizotinib -0.007 | [1] -0.084 | duvelisib -0.001 | gandotinib 0.018 | tozasertib 0.009 | doramapimod 0 | bafetinib -0.002 | [2] 0.07

GMPPB isoform 2 (UniProt Q9Y5P6)
inactive: lapatinib 0.015 | pictilisib -0.023 | crizotinib -0.013 | [1] -0.055 | duvelisib 0.04 | gandotinib 0.022 | tozasertib 0.044 | doramapimod 0.006 | bafetinib 0.009 | [2] 0.065
